For some of these results: For at least one compound, name, drawing or mass did not settle the structure. Some results were stated once for a whole list of compounds, not compound by compound. Some compounds share one range, which may span the group rather than tell each member.
Experiments:
Assay type in all cases: cell-based
SKBR3 cells = assay: Resistance to HER-targeted drugs after exogenous NmU treatment; conditions: SKBR3, exogenous NmU (NmU-25) 48 hours; range over the four drugs
SKBR3-NmU cells = assay: Proliferation assay, NmU cDNA- versus mock-transfected cells; conditions: SKBR3-NmU vs SKBR3-mock
Experimental: (§1) Two siRNAs, designated NmU-1 (SEQ ID NO: 3; 5′-[…]-3′) and NmU-2 (SEQ ID NO: 4; 5′-[…]-3′) (s225456 and s21351, respectively, Ambion, UK), (30 nM) were used to target NmU. Scrambled siRNA (SCR) (AM4611, Ambion, UK) was used as negative control. Transient transfections were harvested 72 hours post-transfection for RNA and protein extraction. NmU full-length cDNA was sub-cloned from pOTB7 (clone ID3502168, Open Biosystems, Ireland) by PCR into pcDNA 3.1(+) zeo-plasmid vector (Invitrogen, Ireland). The construct was verified by DNA sequencing. Mock controls used were of pcDNA3.1(+) plasmid lacking NmU cDNA. Lipofectamine 2000 (Invitrogen, Ireland) was used for transfection following the manufacturer's instructions. Stable transfectants were established by selecting with zeocin (50 μg/ml and 300 μg/ml for HCC1954 and SKBR3 transfected cells, respectively; based on initial assessment of the toxicity of zeocin on these cells) (Invitrogen, Ireland).
(§2) Cells with acquired-resistance compared to aged-parent cells and NmU cDNA-versus mock-transfected cells (HCC1954 variants, 2×10^3 cells/well; SKBR3 variants, 5×10^3 cells/well) were seeded for 24 hours prior to drug additions. […] Five days later, acid phosphatase assay was performed as previously detailed (3).

HCC1954-NmU cells = assay: as above; conditions: HCC1954-NmU vs HCC1954-mock
Experimental: as §1, §2

| Compound | level of resistance induced by exogenous NmU (SKBR3 cells) | anti-proliferative effects in NmU-transfected compared to mock-transfected cells (SKBR3-NmU cells) | anti-proliferative effects in NmU-transfected compared to mock-transfected cells (HCC1954-NmU cells) |
| --- | --- | --- | --- |
| CN(C)C/C=C/C(=O)Nc1cc2c(Nc3ccc(F)c(Cl)c3)ncnc2cc1O[C@H]1CCOC1 [Afatinib] | 1.1-1.3 fold | significantly compromised | significantly compromised |
| CS(=O)(=O)CCNCc1ccc(-c2ccc3ncnc(Nc4ccc(OCc5cccc(F)c5)c(Cl)c4)c3c2)o1 [Lapatinib] | 1.1-1.3 fold |  |  |

Reference: patent publication US20140328840A1, “MARKER AND TARGET FOR RESPONSIVENESS AND RESISTANCE TO CANCER AGENTS” (The Provost, Fellows, Foundation Scholars, and the Other …, priority 2011, published 2014)
